# Percent effect of library compounds

The chains behind the UniProt entries cited, without tags or fusion partners. Residues count along the entry.
UniProt Q8IDJ8, 1-583: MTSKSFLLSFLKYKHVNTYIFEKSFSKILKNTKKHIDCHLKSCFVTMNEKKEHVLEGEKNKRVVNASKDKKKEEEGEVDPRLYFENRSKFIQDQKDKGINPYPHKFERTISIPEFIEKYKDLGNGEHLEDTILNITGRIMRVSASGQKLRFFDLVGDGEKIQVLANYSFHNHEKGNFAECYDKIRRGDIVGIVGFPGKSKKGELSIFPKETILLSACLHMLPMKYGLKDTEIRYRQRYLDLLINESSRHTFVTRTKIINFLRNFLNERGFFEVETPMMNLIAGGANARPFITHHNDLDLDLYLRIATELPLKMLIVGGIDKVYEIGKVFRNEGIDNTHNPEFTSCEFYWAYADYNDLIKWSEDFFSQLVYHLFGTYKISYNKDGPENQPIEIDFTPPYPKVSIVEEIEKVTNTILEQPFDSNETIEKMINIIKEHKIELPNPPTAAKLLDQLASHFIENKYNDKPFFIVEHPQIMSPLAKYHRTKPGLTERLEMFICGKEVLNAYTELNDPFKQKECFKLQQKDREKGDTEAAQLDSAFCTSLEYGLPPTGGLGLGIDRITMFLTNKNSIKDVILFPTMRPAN
UniProt P9WFT3, whole entry: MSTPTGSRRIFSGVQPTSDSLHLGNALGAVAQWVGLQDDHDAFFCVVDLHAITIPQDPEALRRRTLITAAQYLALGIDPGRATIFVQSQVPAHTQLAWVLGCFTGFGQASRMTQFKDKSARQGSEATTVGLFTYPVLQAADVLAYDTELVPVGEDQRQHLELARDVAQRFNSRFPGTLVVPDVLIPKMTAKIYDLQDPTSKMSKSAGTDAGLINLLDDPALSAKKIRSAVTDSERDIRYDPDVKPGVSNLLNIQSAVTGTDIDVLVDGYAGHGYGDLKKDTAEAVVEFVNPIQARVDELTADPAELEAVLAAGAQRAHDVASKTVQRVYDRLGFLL
UniProt P9WPC5, whole entry: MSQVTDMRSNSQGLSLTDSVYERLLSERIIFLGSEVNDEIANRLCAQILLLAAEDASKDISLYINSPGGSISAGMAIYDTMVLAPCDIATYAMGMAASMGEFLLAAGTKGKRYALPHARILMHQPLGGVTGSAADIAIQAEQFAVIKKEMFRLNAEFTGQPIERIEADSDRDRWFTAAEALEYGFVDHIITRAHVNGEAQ
UniProt P9WPC3, whole entry partner: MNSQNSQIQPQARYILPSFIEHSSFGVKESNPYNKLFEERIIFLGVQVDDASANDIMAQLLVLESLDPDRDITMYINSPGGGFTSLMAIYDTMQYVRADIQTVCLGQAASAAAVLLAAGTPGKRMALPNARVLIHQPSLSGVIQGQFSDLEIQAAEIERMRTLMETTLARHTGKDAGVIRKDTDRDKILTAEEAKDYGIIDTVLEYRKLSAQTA
UniProt Q4DA54, 1-478: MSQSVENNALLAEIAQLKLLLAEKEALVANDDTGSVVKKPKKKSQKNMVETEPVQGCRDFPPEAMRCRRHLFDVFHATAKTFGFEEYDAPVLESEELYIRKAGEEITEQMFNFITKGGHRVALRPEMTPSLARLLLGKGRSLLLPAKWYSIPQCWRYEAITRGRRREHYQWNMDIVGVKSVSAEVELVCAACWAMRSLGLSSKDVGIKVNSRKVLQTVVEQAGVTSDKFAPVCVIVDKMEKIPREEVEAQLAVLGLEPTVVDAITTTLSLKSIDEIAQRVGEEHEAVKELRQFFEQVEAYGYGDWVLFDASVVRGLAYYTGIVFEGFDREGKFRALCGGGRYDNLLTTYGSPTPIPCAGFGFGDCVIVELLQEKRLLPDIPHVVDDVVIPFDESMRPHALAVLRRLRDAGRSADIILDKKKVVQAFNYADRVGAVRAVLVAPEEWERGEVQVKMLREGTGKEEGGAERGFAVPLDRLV

The filed quantity is “Percent Effect” (%). The record does not define 0% and 100%; most values in the screen are far below 50% and negative numbers occur (in some assays of this library far below -100). The compounds are a random part of those screened.

PfKRS1: 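Lysine-tRNA ligase, Plasmodium falciparum 3D7 (UniProt Q8IDJ8). Enzyme assay of the cytosolic lysyl-tRNA synthetase in 384-well plates, read by luminescence. Tested at 30 µM. Direction is inferred from only a few compounds that gave an IC50; most scored high, so higher reads as stronger inhibition. Of about 69,000 compounds tested this way, about 49 (0.071%) reached 50% or more in at least one test.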
MtTrpRS: 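Enzyme assay of tryptophanyl-tRNA synthetase; the read-out is not stated. Target: Tryptophan-tRNA ligase, Mycobacterium tuberculosis (UniProt P9WFT3). Compounds at 10 µM. Direction is not recorded; retested compounds ran higher, which suggests that high means inhibition. Size under these conditions: about 65,000 compounds, about 64 of them at 50% or above in at least one test.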
ClpP1P2: 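Protease assay of ClpP1P2, read by the AMC dye that it sets free. Target: ClpP1P2, Mycobacterium tuberculosis (UniProt P9WPC5 and UniProt P9WPC3). Compounds at 50 µM. Direction is inferred from only a few compounds that gave an IC50; most scored high, so higher reads as stronger inhibition. Most other retested compounds had strongly negative values. Of about 69,000 compounds tested this way, about 10 (0.015%) reached 50% or more in at least one test.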
TcHisRS: 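Histidine-tRNA ligase, Trypanosoma cruzi CL Brener (UniProt Q4DA54). Enzyme assay of histidyl-tRNA synthetase; the read-out is not stated. Concentration: 30 µM. Higher reads as stronger inhibition (inferred: compounds with an IC50 in retests scored well above the rest). Of about 69,000 compounds tested this way, about 31 (0.045%) reached 50% or more in at least one test.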

NC(=O)CN1CCC(C(=O)NCCc2nc(-c3ccccc3)cs2)CC1 read PfKRS1: -1.346%; MtTrpRS: 1.687%; ClpP1P2: -5.573%; TcHisRS: -2.128%. Result for COC1CCN(c2ccc(NC(=O)Cn3cccn3)cc2)CC1 was PfKRS1: -1.45%; MtTrpRS: 2.81%; ClpP1P2: -26.27%; TcHisRS: 4.819%. For CN(C)CCN(C)C(=O)NC1CCC(Oc2ccccc2C#N)CC1 (centres unmarked) the result was PfKRS1: 0.4873%; MtTrpRS: -3.526%; ClpP1P2: 5.427%; TcHisRS: 0%. Result for CCOCc1ccccc1NC(=O)NCC(C)(O)c1cc(C)oc1C (centres unmarked) was PfKRS1: 2.264%; MtTrpRS: 0.3276%; ClpP1P2: -4.689%; TcHisRS: 7.182%. For COC(=O)c1ccc(CN2CCC(c3noc(C)n3)CC2)s1 the result was PfKRS1: 0.4224%; MtTrpRS: 5.419%; ClpP1P2: 3.5%; TcHisRS: 5.051%. O=C(NCC1CC1)c1nc(COc2ccc3c(c2)OCO3)no1 read PfKRS1: 9.434%; MtTrpRS: -1.005%; ClpP1P2: -8.022%; TcHisRS: 0.5464%. Result for Cc1ccc(C(=O)N2CCC3(CC2)COC(COc2ccccn2)C3)o1 (centres unmarked) was PfKRS1: 3.016%; MtTrpRS: 2.013%; ClpP1P2: -1.212%; TcHisRS: 1.639%.

For NCc1cc(-c2ccccc2)n2nccc2n1 the result was PfKRS1: 3.584%; ClpP1P2: 9.177%; TcHisRS: 11.3%. CN(C)C(=O)NCC(=O)N(C)Cc1cc(-c2ccccc2)no1 read PfKRS1: 8.418%; MtTrpRS: 2.938%; ClpP1P2: 10.07%; TcHisRS: 1.948%. Result for CN1CCN(Cc2ccc(-c3ccc(-c4ccn[nH]4)cc3)nc2)CC1 was PfKRS1: -0.9706%; MtTrpRS: -4.944%; ClpP1P2: -7.588%; TcHisRS: -1.212%. Result for CCC(C)(C)C(=O)NCCCOC1CCOC1 (centres unmarked) was PfKRS1: -0.8315%; MtTrpRS: -1.135%; ClpP1P2: -11.28%; TcHisRS: 6.494%. Result for CC(C)Oc1ccc(C(=O)N2CCCCC2Cn2cccn2)cn1 (centres unmarked) was PfKRS1: -1.037%; MtTrpRS: -7.62%; ClpP1P2: -7.147%; TcHisRS: 1.466%. CCCc1cc(C(=O)NCCCn2nnc3ccccc32)no1 gave PfKRS1: -3.589%; MtTrpRS: 5.513%; ClpP1P2: -10.04%; TcHisRS: 4.938%. For O=C(CN1CCCC(c2ccn[nH]2)C1)Nc1nc2c(s1)CCC2 (centres unmarked) the result was PfKRS1: 4.347%; MtTrpRS: -3.631%; ClpP1P2: -1.793%; TcHisRS: 7.303%.

O=C(Nc1ccc(F)cc1)N1C[C@H]2C[C@H](C(=O)N3CCCC3)[C@@H](C1)O2 gave PfKRS1: 3.68%; ClpP1P2: -6.375%; TcHisRS: 6.145%. CS(=O)(=O)N1CCN(Cc2csc(-c3ncccn3)n2)CC1 read PfKRS1: -4.643%; MtTrpRS: -1.955%; ClpP1P2: 0.01995%; TcHisRS: 3.333%. Cn1cnc2c1CCN(Cc1cccc(C(N)=O)c1)C2 gave PfKRS1: 5.697%; MtTrpRS: 1.114%; ClpP1P2: 17.69%; TcHisRS: -11.45%. Result for N#Cc1cccc(CN2CCC3(CC2)CC(c2ccncc2)C(=O)N3)c1 (centres unmarked) was PfKRS1: 7.592%; MtTrpRS: 2.616%; ClpP1P2: 4.728%; TcHisRS: 10.74%. CCC1CN(C(=O)c2csc(-c3cnn(C)c3)n2)CCO1 (centres unmarked) read PfKRS1: -4.627%; MtTrpRS: 1.715%; ClpP1P2: 5.768%; TcHisRS: 4.444%. Result for Cn1ccc(CN2CCC(CC(=O)NC3CCCC3)CC2)cc1=O was PfKRS1: -0.5287%; MtTrpRS: 9.893%; ClpP1P2: -14%; TcHisRS: 2.639%. With Cc1ncc(CC(=O)N2CCC3(CCC(=O)N(CCO)C3)CC2)c(=O)[nH]1 the screen gave PfKRS1: 2.447%; MtTrpRS: -2.807%; ClpP1P2: 4.467%; TcHisRS: 2.793%.

With O=C(Cc1cccs1)N1Cc2nc(COCC3CC3)oc2C1 the screen gave PfKRS1: 4.035%; ClpP1P2: -14.53%; TcHisRS: 1.105%. With O=C(CC1CCCC1)NCCS(=O)(=O)N1CCN(c2ncccn2)CC1 the screen gave PfKRS1: 5.146%; MtTrpRS: 0.08937%; ClpP1P2: -5.074%; TcHisRS: 6.878%.

For reference, 3 entries once more:

| Compound | PfKRS1 | MtTrpRS | ClpP1P2 | TcHisRS |
|---|---|---|---|---|
| `CN1CCN(Cc2ccc(-c3ccc(-c4ccn[nH]4)cc3)nc2)CC1` | -0.9706 | -4.944 | -7.588 | -1.212 |
| `CC(C)Oc1ccc(C(=O)N2CCCCC2Cn2cccn2)cn1` (centres unmarked) | -1.037 | -7.62 | -7.147 | 1.466 |
| `COC1CCN(c2ccc(NC(=O)Cn3cccn3)cc2)CC1` | -1.45 | 2.81 | -26.27 | 4.819 |

Measurements from “University of Dundee, Small-Polar-MMV Screening Library” (2021), ChEMBL document CHEMBL3988442.